Measurements published in PMC2998426.
No constants are given. Whether binding was seen depends on the method and setting. In cells and extracts the contact can be indirect.

The chains behind the UniProt entries cited, without tags or fusion partners.
UniProt O75691: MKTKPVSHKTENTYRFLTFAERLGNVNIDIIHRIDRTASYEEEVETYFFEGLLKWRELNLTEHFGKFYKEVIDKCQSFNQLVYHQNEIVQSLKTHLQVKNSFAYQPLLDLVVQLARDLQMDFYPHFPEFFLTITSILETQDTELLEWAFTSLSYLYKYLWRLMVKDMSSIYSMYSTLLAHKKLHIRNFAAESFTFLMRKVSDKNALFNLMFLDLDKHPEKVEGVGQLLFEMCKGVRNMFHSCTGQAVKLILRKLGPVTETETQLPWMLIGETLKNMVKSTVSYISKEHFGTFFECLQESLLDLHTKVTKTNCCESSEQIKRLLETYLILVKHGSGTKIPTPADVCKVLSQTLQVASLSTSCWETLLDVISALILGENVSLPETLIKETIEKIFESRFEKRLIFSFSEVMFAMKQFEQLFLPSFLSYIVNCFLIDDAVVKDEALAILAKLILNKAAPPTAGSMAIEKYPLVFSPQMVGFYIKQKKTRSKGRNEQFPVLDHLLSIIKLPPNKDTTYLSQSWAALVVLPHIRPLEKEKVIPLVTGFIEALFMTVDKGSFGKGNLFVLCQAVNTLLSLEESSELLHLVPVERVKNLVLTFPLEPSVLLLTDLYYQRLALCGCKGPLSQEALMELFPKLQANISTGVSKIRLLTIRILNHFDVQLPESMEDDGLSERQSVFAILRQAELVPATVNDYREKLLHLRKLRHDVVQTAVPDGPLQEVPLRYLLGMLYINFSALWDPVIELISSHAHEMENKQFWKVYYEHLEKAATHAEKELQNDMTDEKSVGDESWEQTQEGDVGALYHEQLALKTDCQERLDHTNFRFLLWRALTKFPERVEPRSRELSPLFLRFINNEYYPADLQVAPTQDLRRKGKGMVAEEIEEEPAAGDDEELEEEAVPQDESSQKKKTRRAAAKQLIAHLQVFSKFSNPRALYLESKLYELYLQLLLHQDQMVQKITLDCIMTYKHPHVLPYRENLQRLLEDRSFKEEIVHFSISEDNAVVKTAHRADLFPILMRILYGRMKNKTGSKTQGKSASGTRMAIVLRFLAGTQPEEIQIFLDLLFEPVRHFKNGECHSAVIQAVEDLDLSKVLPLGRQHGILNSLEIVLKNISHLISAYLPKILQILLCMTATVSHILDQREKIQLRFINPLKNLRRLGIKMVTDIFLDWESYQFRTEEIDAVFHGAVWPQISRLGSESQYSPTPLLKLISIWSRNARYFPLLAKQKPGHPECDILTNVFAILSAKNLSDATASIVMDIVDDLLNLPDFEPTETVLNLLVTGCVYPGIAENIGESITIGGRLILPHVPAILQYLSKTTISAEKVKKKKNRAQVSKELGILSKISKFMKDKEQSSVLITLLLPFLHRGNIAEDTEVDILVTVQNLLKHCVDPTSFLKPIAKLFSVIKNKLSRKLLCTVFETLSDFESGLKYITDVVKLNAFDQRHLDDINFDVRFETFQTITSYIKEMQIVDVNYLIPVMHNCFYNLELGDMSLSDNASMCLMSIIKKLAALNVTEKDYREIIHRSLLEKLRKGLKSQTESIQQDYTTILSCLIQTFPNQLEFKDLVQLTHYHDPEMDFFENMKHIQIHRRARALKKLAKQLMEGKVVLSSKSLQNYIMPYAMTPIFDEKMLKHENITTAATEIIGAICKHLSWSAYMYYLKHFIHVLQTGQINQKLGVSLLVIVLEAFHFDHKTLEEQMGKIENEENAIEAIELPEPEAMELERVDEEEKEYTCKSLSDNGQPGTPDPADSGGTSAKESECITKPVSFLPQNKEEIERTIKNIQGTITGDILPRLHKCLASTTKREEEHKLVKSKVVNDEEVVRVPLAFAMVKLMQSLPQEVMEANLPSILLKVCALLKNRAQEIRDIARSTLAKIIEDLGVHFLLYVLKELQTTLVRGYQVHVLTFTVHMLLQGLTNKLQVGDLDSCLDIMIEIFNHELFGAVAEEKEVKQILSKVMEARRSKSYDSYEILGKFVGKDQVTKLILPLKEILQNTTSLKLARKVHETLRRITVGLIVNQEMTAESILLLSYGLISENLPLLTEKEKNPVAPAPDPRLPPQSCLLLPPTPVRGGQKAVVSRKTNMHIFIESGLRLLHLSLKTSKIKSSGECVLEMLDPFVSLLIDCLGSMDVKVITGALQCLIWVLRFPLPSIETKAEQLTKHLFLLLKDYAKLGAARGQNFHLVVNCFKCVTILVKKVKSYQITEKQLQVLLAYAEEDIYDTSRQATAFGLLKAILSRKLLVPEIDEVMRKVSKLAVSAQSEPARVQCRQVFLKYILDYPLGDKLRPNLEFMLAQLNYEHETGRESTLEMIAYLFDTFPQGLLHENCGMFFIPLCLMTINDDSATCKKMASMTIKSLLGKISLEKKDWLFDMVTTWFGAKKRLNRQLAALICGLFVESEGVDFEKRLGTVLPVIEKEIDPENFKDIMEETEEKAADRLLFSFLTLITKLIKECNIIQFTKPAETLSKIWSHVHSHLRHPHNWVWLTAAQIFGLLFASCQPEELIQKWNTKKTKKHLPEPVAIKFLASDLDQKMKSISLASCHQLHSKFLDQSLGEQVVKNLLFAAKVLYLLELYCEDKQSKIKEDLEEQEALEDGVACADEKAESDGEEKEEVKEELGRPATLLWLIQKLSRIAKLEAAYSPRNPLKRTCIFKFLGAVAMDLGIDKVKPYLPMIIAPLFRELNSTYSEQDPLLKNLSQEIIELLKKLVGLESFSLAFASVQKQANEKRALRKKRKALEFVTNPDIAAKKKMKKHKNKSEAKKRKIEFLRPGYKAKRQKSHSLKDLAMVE

Biological target: 1A6/DRIM (human (endogenous in U2OS)) (UniProt O75691)
Experiment: co-IP; U2OS cell lysate in NET buffer (150 mM NaCl, 5 mM EDTA, 50 mM Tris-Cl pH7.5) with 1% NP-40; anti-1A6/DRIM antibody 6D9 crosslinked to protein A sepharose beads, 4 h at 4°C; endogenous proteins, Western blotting

B1: TAFI110 (protein, UniProt Q15572 1-869)
chain: MDFPSSLRPALFLTGPLGLSDVPDLSFMCSWRDALTLPEAQPQNSENGALHVTKDLLWEPATPGPLPMLPPLIDPWDPGLTARDLLFRGGCRYRKRPRVVLDVTEQISRFLLDHGDVAFAPLGKLMLENFKLEGAGSRTKKKTVVSVKKLLQDLGGHQPWGCPWAYLSNRQRRFSILGGPILGTSVASHLAELLHEELVLRWEQLLLDEACTGGALAWVPGRTPQFGQLVYPAGGAQDRLHFQEVVLTPGDNPQFLGKPGRIQLQGPVRQVVTCTVQGESKALIYTFLPHWLTCYLTPGPFHPSSALLAVRSDYHCAVWKFGKQWQPTLLQAMQVEKGATGISLSPHLPGELAICSRSGAVCLWSPEDGLRQIYRDPETLVFRDSSSWRWADFTAHPRVLTVGDRTGVKMLDTQGPPGCGLLLFRLGAEASCQKGERVLLTQYLGHSSPKCLPPTLHLVCTQFSLYLVDERLPLVPMLKWNHGLPSPLLLARLLPPPRPSCVQPLLLGGQGGQLQLLHLAGEGASVPRLAGPPQSLPSRIDSLPAFPLLEPKIQWRLQERLKAPTIGLAAVVPPLPSAPTPGLVLFQLSAAGDVFYQQLRPQVDSSLRRDAGPPGDTQPDCHAPTASWTSQDTAGCSQWLKALLKVPLAPPVWTAPTFTHRQMLGSTELRREEEEGQRLGVLRKAMARGQLLLQRDLGSLPAAEPPPAPESGLEDKLSERLGEAWAGRGAAWWERQQGRTSEPGRQTRRPKRRTQLSSSFSLSGHVDPSEDTSSPHSPEWPPADALPLPPTTPPSQELTPDACAQGVPSEQRQMLRDYMAKLPPQRDTPGCATTPPHSQASSVRATRSQQHTPVLSSSQPLRKKPRMGF
  binding: no binding
